For two molecules, binding results are on record in publication PMC5800818.

The chains behind the UniProt entries cited, without tags or fusion partners. Where a name states a change or a piece, a line headed by the entry shows the natural chain unless it says otherwise. A line that says so, or that is headed by a name, gives the form on record, which may keep a tag or linker. Residues count along the entry.
GST-Mdm2^134–334 (Q00987, residues 128-328): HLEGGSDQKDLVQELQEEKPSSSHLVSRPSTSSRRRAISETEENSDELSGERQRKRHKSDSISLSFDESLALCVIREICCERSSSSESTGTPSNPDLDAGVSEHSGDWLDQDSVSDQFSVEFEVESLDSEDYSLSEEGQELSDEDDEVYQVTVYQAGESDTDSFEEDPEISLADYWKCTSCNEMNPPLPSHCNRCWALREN
GST-Mdm2^1–134 (Q00987, form named): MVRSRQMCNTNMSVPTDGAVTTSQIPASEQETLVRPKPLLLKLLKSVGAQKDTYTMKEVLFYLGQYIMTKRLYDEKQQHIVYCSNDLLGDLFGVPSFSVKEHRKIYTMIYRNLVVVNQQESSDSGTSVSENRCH

No constants are given. Whether binding was seen depends on the method and setting. Binding seen in cells or lysates may run through a third protein. Some entries that bind do so weakly or less than the wild type. For part of these data: Tags and fused reporters may be left off the sequences shown.

The target in assay [1] is GST-Mdm2^134–334 (human) (UniProt Q00987). Description: pull-down; purified GST-Mdm2 fragments (0.4 µM) with 0.75 mg of lysate of HEK293 cells expressing FLAG-tagged Numb fragments; FLAG immunoblot; only the target purified. (In general: Immunoblotting shows a protein as a band on a membrane.)
For another assay, the target named is GST-Mdm2^1–134 (human) (UniProt Q00987). As to the kind of experiment: pull-down; as Fig. 1 C but with higher concentrations of Mdm2 1–134; not depicted; only the target purified.
The target of assay [2] is GST-Mdm2^134–334 (human) (UniProt Q00987). Description: pull-down; GST-Mdm2 fragments (0.5 µM) with 1 mg of MCF-10A lysate; Numb immunoblot; only the target purified.

B1: FLAG-tagged Numb^1–340 (N-terminal PTB-containing fragment of Numb-1) (domain or fragment, UniProt P49757-1 1-340)
chain: MNKLRQSFRRKKDVYVPEASRPHQWQTDEEGVRTGKCSFPVKYLGHVEVDESRGMHICEDAVKRLKAERKFFKGFFGKTGKKAVKAVLWVSADGLRVVDEKTKDLIVDQTIEKVSFCAPDRNFDRAFSYICRDGTTRRWICHCFMAVKDTGERLSHAVGCAFAACLERKQKREKECGVTATFDASRTTFTREGSFRVTTATEQAEREEIMKQMQDAKKAETDKIVVGSSVAPGNTAPSPSSPTSPTSDATTSLEMNNPHAIPRRHAPIEQLARQGSFRGFPALSQKMSPFKRQLSLRINELPSTMQRKTDFPIKNAVPEVEGEAESISSLCSQITNAFST
Regarding B1, the binding result in the assay with GST-Mdm2^134–334 (human) [1] is “binds”.

B2: endogenous Numb (protein, UniProt P49757 1-651)
chain: MNKLRQSFRRKKDVYVPEASRPHQWQTDEEGVRTGKCSFPVKYLGHVEVDESRGMHICEDAVKRLKAERKFFKGFFGKTGKKAVKAVLWVSADGLRVVDEKTKDLIVDQTIEKVSFCAPDRNFDRAFSYICRDGTTRRWICHCFMAVKDTGERLSHAVGCAFAACLERKQKREKECGVTATFDASRTTFTREGSFRVTTATEQAEREEIMKQMQDAKKAETDKIVVGSSVAPGNTAPSPSSPTSPTSDATTSLEMNNPHAIPRRHAPIEQLARQGSFRGFPALSQKMSPFKRQLSLRINELPSTMQRKTDFPIKNAVPEVEGEAESISSLCSQITNAFSTPEDPFSSAPMTKPVTVVAPQSPTFQANGTDSAFHVLAKPAHTALAPVAMPVRETNPWAHAPDAANKEIAATCSGTEWGQSSGAASPGLFQAGHRRTPSEADRWLEEVSKSVRAQQPQASAAPLQPVLQPPPPTAISQPASPFQGNAFLTSQPVPVGVVPALQPAFVPAQSYPVANGMPYPAPNVPVVGITPSQMVANVFGTAGHPQAAHPHQSPSLVRQQTFPHYEASSATTSPFFKPPAQHLNGSAAFNGVDDGRLASADRHTEVPTGTCPVDPFEAQWAALENKSKQRTNPSPTNPFSSDLQKTFEIEL
Turning to B2, the binding entry is listed as “binds weakly” in the assay with GST-Mdm2^1–134 (human) and “binds” with GST-Mdm2^134–334 (human) [2].
